PubChem BioAssay AID504444 (National Center for Advancing Translational Sciences (NCATS), 2011)
Out of some 360,000 compounds screened, about 7,500 (2.1%) were called active. The shares of active, inactive and inconclusive entries below differ from those in the screen. Calls follow the shape of the dose curve; as a rule, active = well fitted inhibition curve with a large enough effect; inconclusive = small, poorly fitted or top-dose-only effect, or effect the other way; inactive = flat fitted curve, though single readings scatter. A potency beside an inconclusive call is a rough fit, not a confirmed value.

Assay: Nrf2 qHTS screen for inhibitors; also: nearly all actives have a fitted effect of over 60% in size
Settings: A549 ARE-Fluc reporter, luciferase luminescence, 18-24 h; activity change, negative = inhibition: at 46 µM (top of the series)
Method in brief: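 Quantitative HTS in A549 cells stably bearing an antioxidant response element-firefly luciferase construct. Inhibition of Nrf2-driven transcription was scored by luminescence after 18-24 h of compound exposure at 37 °C.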
% is scaled to controls: 0 for no effect and ±100 for the full control effect; potency is read from the fitted curve at half-maximal effect.

Row | Structure (SMILES) | Potency | activity change, negative = inhibition
1 | Fc1ccc(-c2csc(N3CCC(c4ccccc4)C3)n2)cc1 (stereo not given) | inconclusive: 0.58 µM [activator, full curve, poor fit] | 
2 | CCSc1nc2sc3c(c2c(=O)n1-c1ccc(OC)cc1)CCN(C)C3 | active: 23.1 µM | 
3 | Cc1cc(C)n(-c2nc(-c3ccc(Cl)cc3)cs2)n1 | inconclusive: 6.51 µM [activator, partial curve] | 
4 | Cc1cc(C)c2nc(NC(=O)c3ccco3)sc2c1 | inconclusive: 1.84 µM [activator, partial curve, poor fit] | 
5 | N#CC1=C2SCN(c3ccccc3)CN2C(=O)CC1c1ccccc1Cl (stereo not given) | inconclusive: 29.1 µM [falling, single point] | 
6 | CC(C)(C)OC(=O)[C@H](Cc1ccccc1)NC(=O)c1[nH]cnc1C(=O)Nc1ccc(Cl)cc1 | inconclusive: 25.9 µM [falling, single point] | 
7 | COc1ccc([C@@H]2C(C#N)=C(N)S[C@@H](c3ccccc3)[C@@H]2[N+](=O)[O-])cc1 | active: 20.6 µM | 
8 | CCc1nc(N2CCC3(CC2)OCCO3)c2nnn(Cc3ccccc3Cl)c2n1 | inconclusive: 16.4 µM [falling, partial curve, poor fit] | 
9 | COc1cc(/C=C/C(=O)NC(=O)c2ccccc2O)ccc1O | inconclusive: 7.31 µM [falling, single point] | 
10 | Cc1ccc(S(=O)(=O)N2[C@@H](c3ccccc3)C(C(=O)O)=CC[C@H]2c2ccc(Cl)cc2)cc1 | inconclusive: 23.1 µM [falling, single point] | 
11 | COc1ccc(OC)c(/C=N/NC(=O)CCc2n[nH]c(=O)[nH]c2=O)c1 | inconclusive: 6.51 µM [falling, single point] | 
12 | O=C1/C(=C/c2cccs2)SC(=S)N1N1CCOCC1 | inconclusive: 20.6 µM [activator, single point] | 
13 | COc1ccc(CCn2c(C)cc(C(=O)CSc3nc(N)cc(=O)[nH]3)c2C)cc1 | active: 18.4 µM | 
14 | COc1ccc(-n2cc(CNCc3cccnc3)c(-c3cccc(F)c3)n2)cc1 |  | inactive: 18.7%
15 | Cc1cc(C)cc(NC(=O)Cn2ncn3c(cc4ccccc43)c2=O)c1 | inconclusive: 6.51 µM [falling, partial curve, poor fit] | 
16 | Cc1nc(NC(=O)C2CCCCC2)sc1C | inconclusive: 10.3 µM [activator, partial curve, poor fit] | 
17 | CC(C)(C)c1cc(C(=O)N/N=C/c2ccco2)n[nH]1 | inconclusive: 9.2 µM [activator, partial curve] | 
18 | COc1cc(OC)nc(NC(=S)NC(=O)c2ccccc2)n1 |  | inactive: 10.9%
19 | CC(C)(C)c1cc(NC(=O)CCSc2nnc3ccccn23)cc(C(C)(C)C)c1 | inconclusive: 29.1 µM [falling, single point] | 
20 | Cc1ccc(C)c(CN2CCC(CNC(=O)C(CC(C)C)N3Cc4ccccc4C3=O)CC2)c1 (stereo not given) | inconclusive: 29.1 µM [activator, single point] | 

Row | Structure (SMILES) | Potency | activity change, negative = inhibition
21 | Cc1[nH]n(C(N)=S)c(=O)c1N=Nc1cccc([N+](=O)[O-])c1C | inconclusive: 3.26 µM [activator, full curve, poor fit] | 
22 | COc1cc(CNCCO)ccc1OCCc1ccccc1 | inconclusive: 29.1 µM [activator, single point] | 
23 | CSc1ccc(/C=C/C(=O)NC23CC4CC(CC(C4)C2)C3)cc1 | inconclusive: 29.1 µM [activator, single point] | 
24 | Cc1ccc2nc(SCn3nnc4ccccc4c3=O)[nH]c2c1 | inconclusive: 4.61 µM [activator, full curve] | 
25 | COc1ccc(C(=O)CNc2ccccc2CO)cc1 | inconclusive: 8.2 µM [activator, partial curve] | 
26 | O=C1Nc2cc(C(=O)N3CCc4ccccc4C3)ccc2S/C1=C\c1ccccc1 | inconclusive: 32.6 µM [falling, single point] | 
27 | O=C(NC1=NCCS1)c1cccc(S(=O)(=O)N2CCc3ccccc32)c1 | inconclusive: 18.4 µM [falling, partial curve] | 
28 | Cc1ccc(CNC(=O)CSc2nc(C)cs2)cc1 | inconclusive: 4.11 µM [falling, single point] | 
29 | C=CCc1cc(Cl)ccc1OCCCNCCO | inconclusive: 2.59 µM [falling, partial curve, poor fit] | 
30 | CCOC(=O)C1CCCN(C(=O)C2CCCN(S(=O)(=O)c3ccc4c(c3)oc(=O)n4C)C2)C1 (stereo not given) | inconclusive: 0.231 µM [falling, partial curve, poor fit] | 
31 | NS(=O)(=O)c1cccc(NC(=O)COC(=O)/C=C/c2ccco2)c1 | inconclusive: 7.31 µM [activator, partial curve] | 
32 | CC1=NN(c2nc(-c3ccc(C)cc3)cs2)C(=O)C1N=Nc1ccc(C(N)=O)cc1 (stereo not given) | inconclusive: 32.6 µM [falling, partial curve, poor fit] | 
33 | CC(=O)NCCC(=O)N1CCCC(CNC(=O)c2ccc(-c3ccccc3)cc2)C1 (stereo not given) | inconclusive: 29.1 µM [activator, single point] | 
34 | Cc1ccc(CNC(=O)C2CCCN(c3nc4ccccc4n4cccc34)C2)cc1 (stereo not given) |  | inactive: -16.1%
35 | Cc1nc(SCC(=O)N2CCOCC2)c2c3c(sc2n1)CCC3 | inconclusive: 18.4 µM [falling, single point] | 
36 | COc1ccc(CCN2C(=O)CSC2c2cccc([N+](=O)[O-])c2)cc1OC (stereo not given) | inconclusive: 11.6 µM [falling, single point] | 
37 | CCN(CC)c1ccc2c(C)c(CN3CCOCC3)c(=O)oc2c1 |  | inactive: 4.84%
38 | CCN1CCCC1CNC(=O)c1cc2c(-c3ccc(Cl)cc3)nn(C)c2s1 (stereo not given) | inconclusive: 0.082 µM [activator, full curve, poor fit] | 
39 | COc1ccc(C(C)NC(=O)CN(c2cc(OC)ccc2OC)S(=O)(=O)c2ccccc2)cc1 (stereo not given) |  | inactive: 3.81%
40 | COc1ccc2[nH]c3c(c2c1)CCN1C(=O)C(CC(=O)NCc2ccc(OC)c(OC)c2)C[C@H](C(=O)N2CCCCC2)[C@@]31CCc1ccccc1 (stereo not given in full) | inconclusive: 18.4 µM [falling, partial curve] | 

Entries shown so far containing fluorine (2):
Row | Structure (SMILES) | Potency | activity change, negative = inhibition
1 | Fc1ccc(-c2csc(N3CCC(c4ccccc4)C3)n2)cc1 (stereo not given) | inconclusive: 0.58 µM [activator, full curve, poor fit] | 
14 | COc1ccc(-n2cc(CNCc3cccnc3)c(-c3cccc(F)c3)n2)cc1 |  | inactive: 18.7%
